Experimental data from patent publication US6753425B2, “Photographic processing composition containing bistriazinyl arylenediamine derivative” (Fuji Photo Film Co., Ltd., priority 2000, dated 2004).

What was measured:
[1] = Photographic properties in color paper processing: staining by residual sensitizing dyes, ΔDB = DB−DBW, absorbancy at 450 nm
[2] = Photographic properties in processing of color negative film: staining by residual sensitizing dyes, ΔDG = DG−DG0, absorbancy at 540 nm
[3] = Example 1, color paper P-1, color development 38.5° C. 45 sec, absorbancy at 450 nm
[4] = Example 2, color paper P-1, rapid processing, color development 45.0° C. 15 sec, absorbancy at 450 nm
[5] = Example 3, color negative film N-1, compound in fixing solution
[6] = Example 4, color negative film N-1, compound in color developer, shortened processing 41.0° C. 2 min

| Compound | Evaluation of Photographic Properties (ΔDB) [1, 3] | Evaluation of Photographic Properties (ΔDB) [1, 4] | Evaluation of Photographic Properties (ΔDG) [2, 5] | Evaluation of Photographic Properties (ΔDG) [2, 6] | Evaluation of Photographic Properties (ΔDB) [1] |
| --- | --- | --- | --- | --- | --- |
| O=S(=O)([O-])CCNc1nc(NCC(O)CO)nc(Nc2cccc(Nc3nc(NCCS(=O)(=O)[O-])nc(NCC(O)CO)n3)c2)n1.[Na+].[Na+] (stereo not drawn) [Compound A-3] | 0.003 | 0.003 | 0.004 | 0.003 | – |
| CC(CO)Nc1nc(NCC(O)CO)nc(Nc2cc(Nc3nc(NCC(O)CO)nc(NC(C)CO)n3)cc(S(=O)(=O)[O-])c2)n1.[Na+] (stereo not drawn) [Compound A-23] | – | – | – | – | 0.006 |
| O=S(=O)([O-])CCNc1nc(NCC(O)CO)nc(Nc2ccc(Nc3nc(NCCS(=O)(=O)[O-])nc(NCC(O)CO)n3)cc2)n1.[Na+].[Na+] (stereo not drawn) [Compound A-2] | 0.004 | 0.003 | 0.003 | 0.000 | – |

Like-named read-outs stand apart in the source and are kept apart here.
